Source: publication doi:10.1101/115071
No constants are given. Whether binding was seen depends on the method and setting. For part of these data: In cells and extracts the contact can be indirect. Some binding calls cover weakened binding; strength is not graded here. For part of these data: Tags and fused reporters may be left off the sequences shown.

By UniProt entry, the sequences of proteins in these tests, tags left out.
UniProt Q9FTA2: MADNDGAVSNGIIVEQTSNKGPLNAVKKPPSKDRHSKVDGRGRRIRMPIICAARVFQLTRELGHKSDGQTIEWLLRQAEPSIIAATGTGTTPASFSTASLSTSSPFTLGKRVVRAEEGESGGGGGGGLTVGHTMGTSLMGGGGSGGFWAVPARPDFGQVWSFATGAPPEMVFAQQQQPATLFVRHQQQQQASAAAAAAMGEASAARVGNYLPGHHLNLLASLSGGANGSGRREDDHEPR

Assays:
[1] = target: GAL4-BD-CHE (Arabidopsis thaliana) (UniProt Q9FTA2); experiment: two-hybrid
[2] = target: T1, FLAG-tagged ZTL decoy (Arabidopsis thaliana) (UniProt Q94BT6); experiment: co-IP
T1 sequence: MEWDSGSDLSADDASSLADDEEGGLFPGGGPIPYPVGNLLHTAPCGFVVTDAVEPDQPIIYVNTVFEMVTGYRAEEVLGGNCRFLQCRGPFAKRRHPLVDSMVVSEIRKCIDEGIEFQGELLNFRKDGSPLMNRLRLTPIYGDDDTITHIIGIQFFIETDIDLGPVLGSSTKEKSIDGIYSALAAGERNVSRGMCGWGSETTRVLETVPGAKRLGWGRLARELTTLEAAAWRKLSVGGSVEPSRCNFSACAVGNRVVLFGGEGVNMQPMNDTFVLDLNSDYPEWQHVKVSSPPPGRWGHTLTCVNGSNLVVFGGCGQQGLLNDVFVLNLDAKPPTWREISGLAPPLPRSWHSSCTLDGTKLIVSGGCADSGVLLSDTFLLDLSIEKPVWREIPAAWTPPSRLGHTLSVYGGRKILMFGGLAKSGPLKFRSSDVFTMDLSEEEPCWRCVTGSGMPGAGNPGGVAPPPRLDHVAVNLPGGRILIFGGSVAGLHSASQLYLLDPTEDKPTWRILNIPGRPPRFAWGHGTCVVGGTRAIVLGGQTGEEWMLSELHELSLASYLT

[3] = target: FLAG-tagged full length ZTL (Arabidopsis thaliana) (UniProt Q94BT6); experiment: co-IP

GAL4-AD-ZTL full length (from UniProt Q94BT6 1-609)
binding [1]: binds

GFP-tagged CHE (from UniProt Q9FTA2 1-239)
binding [2]: binds
binding [3]: binds
